# Assay results as given in the supplement of paper PMC3334620.
# Over roughly 33,000 sequences, “E-score (-0.5 to 0.5)” has its median near -0.0034; the highest 2% begin near 0.25. Some of the results follow.
# Target: T1, Yap3 (UniProt P38749)
# T1 sequence: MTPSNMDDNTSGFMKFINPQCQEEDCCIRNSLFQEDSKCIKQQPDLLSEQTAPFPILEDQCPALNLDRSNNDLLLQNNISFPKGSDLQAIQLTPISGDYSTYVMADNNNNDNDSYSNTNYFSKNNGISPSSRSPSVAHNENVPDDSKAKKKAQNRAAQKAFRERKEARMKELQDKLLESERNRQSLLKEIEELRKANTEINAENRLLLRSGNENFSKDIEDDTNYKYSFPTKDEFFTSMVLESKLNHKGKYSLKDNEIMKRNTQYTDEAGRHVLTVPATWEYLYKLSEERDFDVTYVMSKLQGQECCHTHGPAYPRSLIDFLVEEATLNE
# Test: PBM E-score (8-mer binding enrichment) (E-score (-0.5 to 0.5)); higher = stronger / more preferred TF binding
# Conditions: protein concentration: 100 nM; construct: GST-full length
# Experimental: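 Universal 'all 10-mer' protein binding microarrays (Agilent AMADID 015681) probed with GST-tagged S. cerevisiae TFs (full-length or DBD) made by in vitro transcription/translation (PURExpress), about 100-200 nM. Bound TF was detected with fluorescent anti-GST. Each ungapped 8-mer (which stands for itself and its reverse complement) is scored by the PBM enrichment score (E-score), a modified Wilcoxon-Mann-Whitney statistic from -0.5 to +0.5, computed with the Universal PBM Analysis Suite. Scale: above 0.35 generally sequence-specific binding.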
row,Sequence,PBM E-score
1,AATGCCCG,-0.117
2,ACCAATAG,-0.0827
3,CCTCTGCC,-0.306
4,CTCTCCTA,-0.0948
5,AACATACG,0.183
6,ATTTGCCG,0.0329
7,CGAATGTC,0.0563
8,AGTGCTTG,-0.0485
9,TCCATGCA,0.0556
10,CACTCCGA,-0.19
11,ACTCTACA,-0.12
12,AGCACGCT,-0.221
13,ACTGTAGG,0.137
14,ACGAAGGA,0.0261
15,CTTAGTAA,0.429
16,GTTATGGA,0.215
17,TCTTAAAA,0.163
18,AAAGGTCG,-0.0514
19,TCATTAAA,0.258
20,CTTACGTC,0.0927
21,GATCATCA,-0.0385
22,AGGCGACC,-0.238
23,GCCAGCCC,-0.336
24,CCATGGAC,-0.0155
25,CCGTAAAC,0.089

row,Sequence,PBM E-score
1,ACAGAAGT,0.00792
2,ATCGATCA,0.194
3,TCACCTGA,-0.17
4,CGAGCCTC,-0.184
5,CCGCAGGA,-0.196
6,ATCGCGCG,0.155
7,ACCGAAGC,-0.17
8,ACGAAGGC,-0.134
9,ACGCCTCT,-0.0246
10,CGCCGATA,0.00531
11,ACATTAGG,-0.0248
12,GGCCTGAC,-0.145
13,ACTGGAAA,0.126
14,CACTGGAA,-0.0182
15,ATTCTTTC,0.142
16,GAGCGAGA,0.134
17,AAGCTCGT,-0.0104
18,GACAAGCA,-0.14
19,GCTGTACA,-0.136
20,AATTTGCG,0.0563
21,GAACATTC,0.0524
22,ATGTGGGA,0.0951
23,CTTGACAA,0.119
24,GAGGCGAA,0.137
25,CGAGGGTC,-0.351

row,Sequence,PBM E-score
1,GCGGGCCA,-0.166
2,ATGGCCAA,-0.114
3,GTGTAATA,0.214
4,TACATTAA,0.199
5,AGATTTAG,0.0205
6,CTCTTGTC,0.0437
7,ACATGGTA,0.127
8,AATTATCC,0.133
9,CCACCGAA,-0.0425
10,ATTCATGA,0.0399
11,ATCAAAGG,0.097
12,ATGAGACC,0.00419
13,CAAGGGCA,-0.2
14,ACGCCATC,-0.044
15,CTATGACA,0.165
16,GCAGGAAC,-0.0758
17,CATGCCGG,0.0101
18,ATACATGC,0.0109
19,CGCGTTCA,0.174
20,GTACAACA,0.221
21,GTACACAA,0.198
22,AACAGAAA,0.157
23,ACGATGGC,0.0417
24,CGTCTTGA,0.0708
25,TGTGTTAA,0.196

# 5 entries from above in a different format.
row	Sequence	PBM E-score
3	CCTCTGCC	-0.306
5	AACATACG	0.183
2	ATCGATCA	0.194
24	GAGGCGAA	0.137
24	CGTCTTGA	0.0708

# The list goes on.

row,Sequence,PBM E-score
1,ACCCGAGG,-0.105
2,AGCGAGGG,-0.171
3,CGAAAGAA,0.143
4,AGTGCGAC,-0.113
5,TACTGGGA,0.108
6,CTCGTTGC,0.0493
7,CCATTATA,0.082
8,ATGGTTTA,0.0249
9,GCTCTTTA,0.0383
10,ACATTTAT,0.179
11,ATGACGAG,0.00121
12,ATAAATGG,0.195
13,CGGGATTA,0.0953
14,ACGGACTC,-0.175
15,GCAACCCC,-0.288
16,ACTGAGAA,0.059
17,CACCTTAG,-0.0796
18,ATCGTCAA,-0.00648
19,ATCGTTGA,-0.0043
20,AGCATTAG,0.0718
21,AAACGGTA,0.301
22,CTCTCTGC,-0.0791
23,ACCCACGT,0.0788
24,CACTCCCG,-0.0225
25,CGGACAAG,0.135

row,Sequence,PBM E-score
1,CAAACCCA,0.155
2,GAGCGACC,-0.142
3,CTAAGAAG,0.00476
4,GAATAGTA,0.24
5,CGTATCCA,-0.0607
6,AAGATTGA,0.0687
7,GAAATGTC,-0.0215
8,AGTAAATC,0.159
9,GGATAAGA,0.0239
10,AACACGCC,-0.0623
11,TATCTGCA,0.0463
12,ACCTCCCG,-0.279
13,CAGGGGAC,-0.249
14,CGATGGCG,0.0348
15,AATCCGGT,0.162
16,CTTCACCC,0.104
17,GGCTCCTA,-0.336
18,TACAAGGA,0.144
19,AAATTCTT,0.0652
20,TTGAGAAA,0.0166
21,GCGGACCA,0.0668
22,ATGTAATA,0.371
23,CACTGGGC,-0.162
24,GCTAATCC,0.0261
25,GGTGCATA,-0.012

row,Sequence,PBM E-score
1,CAAGATCG,-0.0589
2,CTGTGGAA,-0.0586
3,CTGTAAGC,-0.0121
4,AAGCCGGA,0.0522
5,AACGTCGC,-0.106
6,CAAGAGCC,0.0964
7,CTTGAACA,-0.0355
8,ACGCTGCC,-0.225
9,TATCTTGA,-0.0978
10,CAGCAAAG,0.00686
11,ATTGGCAG,-0.0651
12,AAACAATA,0.163
13,AGTCTCTC,-0.0846
14,GTCTCGAA,0.00257
15,CAGCCCGC,-0.171
16,GAAACCAC,0.0924
17,ACGTGCAA,0.107
18,GTTACGAA,0.181
19,TGCGCTAA,0.14
20,GCCGTTCC,-0.0665
21,GACTAGAC,-0.164
22,CAAACACG,0.092
23,CCTGGTAG,-0.175
24,CCTTATAC,0.0445
25,CAGTCACG,-0.157

# As entered above:
# Value of CAGCAAAG under PBM E-score: 0.00686
# Value of CAAGATCG under PBM E-score: -0.0589
# Value of CAAGAGCC under PBM E-score: 0.0964
# Value of ACGCTGCC under PBM E-score: -0.225

# Additional records.

row,Sequence,PBM E-score
1,GGTCCTGA,-0.187
2,CCGGTGCG,-0.192
3,CAGTGGTC,-0.163
4,GGTAACAC,0.0453
5,CACACCGG,-0.0838
6,CACACGCA,-0.112
7,CCTAAGCC,-0.262
8,CCCGAACC,-0.213
9,CAAACCAG,0.00756
10,CTGCCAGA,-0.201
11,ACTCCACT,-0.111
12,ACAGCTTG,0.0129
13,AGTACACC,0.0217
14,ATATACCG,0.177
15,CGCAGCTA,-0.268
16,TAATGCGA,0.189
17,CTTTCACC,0.105
18,AAATATTT,0.249
19,CTGCTGGC,-0.396
20,AATTTTCA,0.143
21,GACACTCA,-0.0515
22,CCACTCTA,0.0474
